Results are given in words; binding and its absence hold for the method and conditions named. Binding seen in cells or lysates may run through a third protein. Some results given as binding are weak or reduced against the parent protein; the word gives no strength.
Target: muscarinic acetylcholine receptor M3, mCitrine-tagged, wild type (M3R-mCit wt) (human) (UniProt P20309)
Assay: FRET or BRET; single-cell FRET imaging between β-arrestin2-mTurq and M3R-mCit in HEK293T cells co-transfected with GRK2; cells superfused with acetylcholine, 30 s per concentration; room temperature; extracellular buffer pH 7.3; amplitudes corrected for relative expression levels

The chains behind the UniProt entries cited, without tags or fusion partners.
UniProt P32121: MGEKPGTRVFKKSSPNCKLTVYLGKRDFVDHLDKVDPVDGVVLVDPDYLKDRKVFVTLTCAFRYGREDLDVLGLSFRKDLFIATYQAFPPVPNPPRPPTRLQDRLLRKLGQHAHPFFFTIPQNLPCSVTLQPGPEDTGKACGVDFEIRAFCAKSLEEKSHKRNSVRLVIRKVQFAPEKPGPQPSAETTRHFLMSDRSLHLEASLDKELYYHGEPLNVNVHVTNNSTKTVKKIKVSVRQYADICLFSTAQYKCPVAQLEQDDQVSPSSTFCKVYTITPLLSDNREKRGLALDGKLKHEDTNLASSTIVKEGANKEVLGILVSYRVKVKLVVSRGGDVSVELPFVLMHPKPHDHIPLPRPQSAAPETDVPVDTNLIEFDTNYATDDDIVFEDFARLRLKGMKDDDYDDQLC

binding: binds
Substance: β-arrestin2-mTurq (from UniProt P32121 1-409)

Source: PMC9091257
